PubChem BioAssay AID720505 | Drosophila RNAi Screening Center, 2013

- Assay: 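Knock-downs that reduce calcium influx once internal stores are emptied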 (primary screen)
- Cells: Drosophila S2R+ cells
- Reagents: long dsRNA against Drosophila genes
- Conditions: thapsigargin (2 µM) in calcium-free buffer to empty internal stores, then 2 mM calcium added back
- Read-out: 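Stores emptied by 2 µM thapsigargin without calcium, then 2 mM calcium re-added; fluo-4 fluorescence followed by FLIPR in 384-well plates, per-well averaged endpoint, raw; two screen passes, some wells retested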
- Direction: calcium signal and retest calcium signal: higher = more calcium entry after store depletion
- Hit rule: 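Knock-downs counted as hits when calcium entry dropped relative to STIM1 positive and Rho1 negative controls present on each plate; roughly 1500 genes called, with reductions of differing size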
- Meaning of the calls: active = called as lowering calcium entry; inactive = not called
In all, the deposit lists about 20,000 reagents; shown is a random part of those that have a named target and a result. Over the whole deposit, about 2,100 (10%) got an active call. 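Raw plate signals without normalisation; calls rest on control-based scores that were not deposited; replicate 2 separates called from uncalled poorly.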 A number with no mark means an inactive call. Names joined by + are all predicted targets of the reagent. The record does not give: the amount of reagent, the time to read-out.

| target gene | amplicon | calcium signal, replicate 1 | calcium signal, replicate 2 | retest calcium signal, replicate 1 | retest calcium signal, replicate 2 |
| --- | --- | --- | --- | --- | --- |
| BaraA1 + BaraA2 | DRSC05417 | 119 | 134 | – | – |
| CG3708 | DRSC18646 | 145 | 157 | – | – |
| intr (intrepid) | DRSC14528 | 114 | 136 | – | – |
| LysS (Lysozyme S) | DRSC08677 | 65.4 | 111 | – | – |
| FoxL1 (Forkhead box L1) | DRSC08717 | 99.2 | 106 | – | – |
| Klp68D (Kinesin-like protein at 68D) | DRSC11206 | 144 | 90.7 | – | – |
| ver (verrocchio) | DRSC10125 | 104 | 99.4 | – | – |
| CG7506 | DRSC10860 | 90.3 | 128 | – | – |
| LManII (Lysosomal alpha-mannosidase II) | DRSC01986 | 92.2 | 126 | – | – |
| BckdhB (Branched chain keto acid dehydrogenase E1 subunit beta) | DRSC21183 | 61.3 (active) | 186 | – | – |
| mRRF1 (mitochondrial ribosome recycling factor 1) | DRSC10421 | 128 | 131 | – | – |
| CG13365 | DRSC17899 | 82.2 | 118 | – | – |
| Cisd2 (CDGSH iron sulfur domain 2) | DRSC14904 | 128 | 116 | – | – |
| Atg101 (Autophagy-related 101) | DRSC20020 | 150 | 121 | – | – |
| CG4210 | DRSC15551 | 101 | 167 | – | – |
| Ir47a (Ionotropic receptor 47a) | DRSC06215 | 140 | 166 | – | – |
| lectin-24Db | DRSC00553 | 130 | 242 | – | – |
| Drgx (Dorsal root ganglia homeobox) | DRSC00278 | 182 | 122 | – | – |
| Drgx (Dorsal root ganglia homeobox) | DRSC00537 | 124 | 81.7 | – | – |
| Ran | DRSC20364 | 40 (active) | 29.6 | – | – |
| nyo (nyobe) | DRSC15029 | 94.9 | 87.8 | – | – |
| nyo (nyobe) | DRSC15030 | 87.9 | 122 | – | – |
| CG17167 | DRSC20902 | 71.3 (active) | 148 | – | – |
| CG17167 | DRSC20903 | 127 | 79.2 | – | – |
| Atg1 (Autophagy-related 1) | DRSC09809 | 91.6 | 120 | – | – |
| Atg1 (Autophagy-related 1) | DRSC09810 | 69.3 | 105 | – | – |
| CG11099 | DRSC06034 | 143 | 155 | – | – |
| Arpc3B (Actin-related protein 2/3 complex, subunit 3B) | DRSC20126 | 86.4 | 105 | – | – |
| ImpL1 (Ecdysone-inducible gene L1) | DRSC11197 | 112 | 80.2 | – | – |
| tipE (temperature-induced paralytic E) | DRSC08738 | 144 | 83.4 | – | – |
| rg (rugose) | DRSC17726 | 97.8 | 86.2 | – | – |
| rg (rugose) | DRSC18049 | 212 | 87.5 | – | – |
| Kap3 (Kinesin associated protein 3) | DRSC19426 | 127 | 98.1 | – | – |
| Dlg5 (Discs large 5) | DRSC02964 | 74.3 | 119 | – | – |
| CG11313 | DRSC14295 | 220 | 140 | – | – |
| Blm + CG14721 | DRSC14943 | 187 | 117 | – | – |
| CG11414 | DRSC04110 | 194 | 112 | – | – |
| CG5493 + CG5327 | DRSC06938 | 188 | 136 | – | – |
| pot (papillote) | DRSC19850 | 191 | 140 | – | – |
| AhcyL1 (Adenosylhomocysteinase like 1) | DRSC08647 | 78 | 91.8 | – | – |
| CG31689 | DRSC00734 | 139 | 156 | – | – |
| CG3698 | DRSC11749 | 102 | 103 | – | – |
| CG7742 | DRSC03066 | 110 | 255 | – | – |
| CG42342 | DRSC14378 | 78.8 | 96.5 | – | – |
| CG42342 | DRSC15010 | 129 | 124 | – | – |
| CG42342 | DRSC15011 | 140 | 83.5 | – | – |
| CG42342 | DRSC15012 | 98.8 | 86.3 | – | – |
| CG42342 | DRSC21791 | 163 | 81 | – | – |
| CG42342 | DRSC22861 | 69.1 | 76.8 | – | – |
| CG42342 | DRSC23112 | 120 | 150 | – | – |
| CG10081 | DRSC05962 | 202 | 146 | – | – |
| CG15721 | DRSC19688 | 128 | 108 | – | – |

14 successive records already listed, quoted:
| target gene | amplicon | calcium signal, replicate 1 | calcium signal, replicate 2 | retest calcium signal, replicate 1 | retest calcium signal, replicate 2 |
| --- | --- | --- | --- | --- | --- |
| CG5493 + CG5327 | DRSC06938 | 188 | 136 | – | – |
| pot (papillote) | DRSC19850 | 191 | 140 | – | – |
| AhcyL1 (Adenosylhomocysteinase like 1) | DRSC08647 | 78 | 91.8 | – | – |
| CG31689 | DRSC00734 | 139 | 156 | – | – |
| CG3698 | DRSC11749 | 102 | 103 | – | – |
| CG7742 | DRSC03066 | 110 | 255 | – | – |
| CG42342 | DRSC14378 | 78.8 | 96.5 | – | – |
| CG42342 | DRSC15010 | 129 | 124 | – | – |
| CG42342 | DRSC15011 | 140 | 83.5 | – | – |
| CG42342 | DRSC15012 | 98.8 | 86.3 | – | – |
| CG42342 | DRSC21791 | 163 | 81 | – | – |
| CG42342 | DRSC22861 | 69.1 | 76.8 | – | – |
| CG42342 | DRSC23112 | 120 | 150 | – | – |
| CG10081 | DRSC05962 | 202 | 146 | – | – |

Additional records:
| target gene | amplicon | calcium signal, replicate 1 | calcium signal, replicate 2 | retest calcium signal, replicate 1 | retest calcium signal, replicate 2 |
| --- | --- | --- | --- | --- | --- |
| E(spl)m8-HLH (Enhancer of split m8, helix-loop-helix) | DRSC16654 | 221 | 155 | – | – |
| CG10738 | DRSC09792 | 84.3 | 112 | – | – |
| CG4678 | DRSC19911 | 113 | 127 | – | – |
| CG4678 | DRSC19912 | 89.3 | 143 | – | – |
| CG9849 | DRSC04573 | 161 | 194 | – | – |
| D12 | DRSC03311 | 119 | 292 | – | – |
| Msh6 | DRSC10759 | 84.6 | 122 | – | – |
| aop (anterior open) | DRSC00801 | 142 | 133 | – | – |
| aop (anterior open) | DRSC22999 | 108 | 141 | – | – |
| CG17036 | DRSC02564 | 89.8 | 151 | – | – |
| vsg (visgun) | DRSC10219 | 105 | 107 | – | – |
| CG15022 | DRSC08476 | 83.2 | 56.4 | – | – |
| ppl (pumpless) | DRSC11899 | 60.9 (active) | 104 | – | – |
| CG14341 | DRSC00371 | 134 | 126 | – | – |
| CG12507 | DRSC19463 | 78.2 | 136 | – | – |
| Coq8 (Coenzyme Q8) | DRSC19900 | 136 | 93.1 | – | – |
| CG1552 | DRSC19665 | 125 | 92.7 | – | – |
| Rel (Relish) | DRSC16819 | 102 | 166 | – | – |
| KaiR1D (Kainate-type ionotropic glutamate receptor subunit 1D) | DRSC15516 | 211 | 173 | – | – |
| Marcal1 | DRSC02718 | 147 | 112 | – | – |
| lncRNA:CR31781 (long non-coding RNA:CR31781) | DRSC02431 | 117 | 113 | – | – |
| lncRNA:CR31781 (long non-coding RNA:CR31781) | DRSC02432 | 119 | 106 | – | – |
| CG13748 | DRSC06419 | 99.4 | 103 | – | – |
| Ubqn (Ubiquilin) | DRSC19581 | 81.7 | 112 | – | – |
| COX5A (Cytochrome c oxidase subunit 5A) | DRSC16611 | 157 | 102 | – | – |
| Eglp3 (Entomoglyceroporin 3) | DRSC04293 | 117 | 168 | – | – |
| Rrp46 | DRSC15537 | 140 | 99.1 | – | – |
| Prosalpha4T2 (Proteasome alpha4 subunit, Testis-specific 2) | DRSC04643 | 142 | 198 | – | – |
| TAF1C-like | DRSC04073 | 172 | 83.8 | – | – |
| r-l (rudimentary-like) | DRSC17042 | 156 | 255 | 7548 | 148 |
| r-l (rudimentary-like) | DRSC22784 | 111 | 133 | – | – |
